Values from PubChem BioAssay AID686938 (Drosophila RNAi Screening Center, 2013)

Test: 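Knock-downs reducing store-operated calcium influx in Drosophila cells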 (primary screen)
Cells: Drosophila S2R+ cells
Knock-down reagent: long dsRNA against Drosophila genes, about 0.25 µg dsRNA per well, roughly 10,000 cells
Duration: 5 days of knock-down before the calcium assay
Treatment: thapsigargin (SERCA pump blocker) to empty calcium stores; entry signal taken 4 min after adding it
Measurement: 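Duplicate raw fluo-4 intensities per well from a plate reader, at rest and four minutes after thapsigargin emptied calcium stores; entry-to-rest ratio filled for only some wells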
Scale: calcium entry signal: higher = stronger calcium signal after store depletion; entry to resting ratio: higher = more calcium entry relative to resting level; resting calcium signal: higher = higher resting calcium signal
Units: calcium entry signal in fluorescence units; resting calcium signal in fluorescence units
Rule for the call: 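Called when the plate z-score of the entry-to-rest ratio, mean of duplicates, falls below −3; wells with low overall dye signal (Fmax z below −2) or more than five off-targets excluded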
Calls: active = strongly reduced calcium entry; inactive = no strong reduction
In all, the deposit lists about 23,000 reagents; this is a random part of those that have a named target and a result. Of all reagents, 75 (0.33%) got an active call. 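Raw plate signals without normalisation; calls rest on plate z-scores that were not deposited; ratio present for only 364 wells.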 Names joined by + are all predicted targets of the reagent. No sequences are given here. Not stated in the record: the dose of the treatment.

{"Gene":"CG11570 (GeneID 39357)","DRSC id":"DRSC09844","calcium entry signal, replicate 1":3.15e7,"calcium entry signal, replicate 2":4.14e7,"resting calcium signal, replicate 1":1.60e7,"resting calcium signal, replicate 2":1.90e7,"Outcome":"inactive"}
{"Gene":"CG8042 (GeneID 38886)","DRSC id":"DRSC09676","calcium entry signal, replicate 1":4.54e7,"calcium entry signal, replicate 2":3.70e7,"resting calcium signal, replicate 1":3.17e7,"resting calcium signal, replicate 2":1.57e7,"Outcome":"inactive"}
{"Gene":"CG11583 (GeneID 326206)","DRSC id":"DRSC08202","calcium entry signal, replicate 1":2.95e7,"calcium entry signal, replicate 2":2.72e7,"resting calcium signal, replicate 1":2.49e7,"resting calcium signal, replicate 2":1.40e7,"Outcome":"inactive"}
{"Gene":"CG10068 (GeneID 40852)","DRSC id":"DRSC12508","calcium entry signal, replicate 1":4.69e7,"calcium entry signal, replicate 2":4.55e7,"resting calcium signal, replicate 1":1.84e7,"resting calcium signal, replicate 2":2.06e7,"Outcome":"inactive"}
{"Gene":"CG15814 (GeneID 32765)","DRSC id":"DRSC19730","calcium entry signal, replicate 1":2.82e7,"calcium entry signal, replicate 2":2.96e7,"resting calcium signal, replicate 1":1.43e7,"resting calcium signal, replicate 2":1.47e7,"Outcome":"inactive"}
{"Gene":"Cpr65Au (GeneID 59158)","DRSC id":"DRSC22738","calcium entry signal, replicate 1":4.28e7,"calcium entry signal, replicate 2":3.83e7,"resting calcium signal, replicate 1":2.44e7,"resting calcium signal, replicate 2":1.77e7,"Outcome":"inactive"}
{"Gene":"Polr2G (GeneID 261631)","DRSC id":"DRSC16068","calcium entry signal, replicate 1":1.67e7,"calcium entry signal, replicate 2":1.85e7,"resting calcium signal, replicate 1":9.96e6,"resting calcium signal, replicate 2":1.07e7,"Outcome":"inactive"}
{"Gene":"His2B:CG33894 + His2B:CG33872 + His2B:CG33902 + 20 more","DRSC id":"DRSC21265","calcium entry signal, replicate 1":1.52e7,"calcium entry signal, replicate 2":2.04e7,"resting calcium signal, replicate 1":1.21e7,"resting calcium signal, replicate 2":1.25e7,"Outcome":"inactive"}
{"Gene":"Asator (GeneID 43794)","DRSC id":"DRSC17136","calcium entry signal, replicate 1":3.99e7,"calcium entry signal, replicate 2":6.74e7,"entry to resting ratio":2,"resting calcium signal, replicate 1":2.04e7,"resting calcium signal, replicate 2":2.41e7,"Outcome":"inactive"}
{"Gene":"rswl (GeneID 37124)","DRSC id":"DRSC06923","calcium entry signal, replicate 1":3.78e7,"calcium entry signal, replicate 2":3.74e7,"resting calcium signal, replicate 1":1.71e7,"resting calcium signal, replicate 2":1.77e7,"Outcome":"inactive"}
{"Gene":"qkr58E-1 (GeneID 37561)","DRSC id":"DRSC04709","calcium entry signal, replicate 1":3.28e7,"resting calcium signal, replicate 1":1.64e7,"Outcome":"inactive"}
{"Gene":"CG16743 (GeneID 34517)","DRSC id":"DRSC02514","calcium entry signal, replicate 1":4.37e7,"calcium entry signal, replicate 2":5.04e7,"resting calcium signal, replicate 1":2.06e7,"resting calcium signal, replicate 2":2.40e7,"Outcome":"inactive"}
{"Gene":"Dek (GeneID 47906)","DRSC id":"DRSC07418","calcium entry signal, replicate 1":3.83e7,"calcium entry signal, replicate 2":3.70e7,"resting calcium signal, replicate 1":1.80e7,"resting calcium signal, replicate 2":1.93e7,"Outcome":"inactive"}
{"Gene":"Tsp68C (GeneID 117407)","DRSC id":"DRSC09295","calcium entry signal, replicate 1":2.06e7,"calcium entry signal, replicate 2":2.93e7,"resting calcium signal, replicate 1":1.09e7,"resting calcium signal, replicate 2":1.32e7,"Outcome":"inactive"}
{"Gene":"CG5255 (GeneID 42073)","DRSC id":"DRSC15754","calcium entry signal, replicate 1":3.25e7,"calcium entry signal, replicate 2":6.62e7,"resting calcium signal, replicate 1":1.68e7,"resting calcium signal, replicate 2":6.92e7,"Outcome":"inactive"}
{"Gene":"CG14054 (GeneID 31172)","DRSC id":"DRSC17909","calcium entry signal, replicate 1":4.86e7,"calcium entry signal, replicate 2":6.40e7,"entry to resting ratio":1.9,"resting calcium signal, replicate 1":2.50e7,"resting calcium signal, replicate 2":2.55e7,"Outcome":"inactive"}
{"Gene":"Spt-I (GeneID 36448)","DRSC id":"DRSC06860","calcium entry signal, replicate 1":2.33e7,"calcium entry signal, replicate 2":3.20e7,"resting calcium signal, replicate 1":1.27e7,"resting calcium signal, replicate 2":1.43e7,"Outcome":"inactive"}
{"Gene":"CG8072 (GeneID 39181)","DRSC id":"DRSC10960","calcium entry signal, replicate 1":3.57e7,"calcium entry signal, replicate 2":3.77e7,"resting calcium signal, replicate 1":1.85e7,"resting calcium signal, replicate 2":1.65e7,"Outcome":"inactive"}
{"Gene":"fusl (GeneID 33765)","DRSC id":"DRSC02351","calcium entry signal, replicate 1":4.19e7,"resting calcium signal, replicate 1":2.35e7,"Outcome":"inactive"}
{"Gene":"CheA87a (GeneID 41642)","DRSC id":"DRSC14839","calcium entry signal, replicate 1":2.65e7,"calcium entry signal, replicate 2":4.83e7,"resting calcium signal, replicate 1":1.47e7,"resting calcium signal, replicate 2":6.90e7,"Outcome":"inactive"}
{"Gene":"Pdk (GeneID 35970)","DRSC id":"DRSC07504","calcium entry signal, replicate 1":3.33e7,"calcium entry signal, replicate 2":2.70e7,"resting calcium signal, replicate 1":1.42e7,"resting calcium signal, replicate 2":1.27e7,"Outcome":"inactive"}
{"Gene":"CG15035 (GeneID 31673)","DRSC id":"DRSC17967","calcium entry signal, replicate 1":3.83e7,"calcium entry signal, replicate 2":3.31e7,"resting calcium signal, replicate 1":1.83e7,"resting calcium signal, replicate 2":1.63e7,"Outcome":"inactive"}
{"Gene":"CG3556 (GeneID 31380)","DRSC id":"DRSC18309","calcium entry signal, replicate 1":3.87e7,"calcium entry signal, replicate 2":4.14e7,"resting calcium signal, replicate 1":1.93e7,"resting calcium signal, replicate 2":1.98e7,"Outcome":"inactive"}
{"Gene":"CG6481 (GeneID 32843)","DRSC id":"DRSC19995","calcium entry signal, replicate 1":3.91e7,"calcium entry signal, replicate 2":3.31e7,"resting calcium signal, replicate 1":1.97e7,"resting calcium signal, replicate 2":1.53e7,"Outcome":"inactive"}
{"Gene":"NP15.6 (GeneID 42282)","DRSC id":"DRSC16756","calcium entry signal, replicate 1":3.54e7,"calcium entry signal, replicate 2":3.44e7,"resting calcium signal, replicate 1":4.10e7,"resting calcium signal, replicate 2":1.58e7,"Outcome":"inactive"}
{"Gene":"Sap47 (GeneID 41938)","DRSC id":"DRSC16850","calcium entry signal, replicate 1":1.59e7,"calcium entry signal, replicate 2":2.14e7,"resting calcium signal, replicate 1":8.17e6,"resting calcium signal, replicate 2":9.57e6,"Outcome":"inactive"}
{"Gene":"Cpr65Az (GeneID 38712)","DRSC id":"DRSC09882","calcium entry signal, replicate 1":2.94e7,"calcium entry signal, replicate 2":4.05e7,"resting calcium signal, replicate 1":1.29e7,"resting calcium signal, replicate 2":1.55e7,"Outcome":"inactive"}
{"Gene":"Cpr65Az (GeneID 38712)","DRSC id":"DRSC22057","calcium entry signal, replicate 1":4.00e7,"calcium entry signal, replicate 2":2.81e7,"resting calcium signal, replicate 1":2.42e7,"resting calcium signal, replicate 2":1.59e7,"Outcome":"inactive"}

3 neighbouring records from above, for reference:
{"Gene":"Dek (GeneID 47906)","DRSC id":"DRSC07418","calcium entry signal, replicate 1":3.83e7,"calcium entry signal, replicate 2":3.70e7,"resting calcium signal, replicate 1":1.80e7,"resting calcium signal, replicate 2":1.93e7,"Outcome":"inactive"}
{"Gene":"Tsp68C (GeneID 117407)","DRSC id":"DRSC09295","calcium entry signal, replicate 1":2.06e7,"calcium entry signal, replicate 2":2.93e7,"resting calcium signal, replicate 1":1.09e7,"resting calcium signal, replicate 2":1.32e7,"Outcome":"inactive"}
{"Gene":"CG5255 (GeneID 42073)","DRSC id":"DRSC15754","calcium entry signal, replicate 1":3.25e7,"calcium entry signal, replicate 2":6.62e7,"resting calcium signal, replicate 1":1.68e7,"resting calcium signal, replicate 2":6.92e7,"Outcome":"inactive"}
